According to PubChem BioAssay AID1487 (National Center for Advancing Translational Sciences (NCATS), 2009):
The other results are listed elsewhere or left out. Further columns of the screen follow, without active or inactive calls. Most of these compounds were active or inconclusive in the main read-out, so they are no random draw. The note in brackets gives the kind of curve behind each potency; many fits are weak.

Test: qHTS Assay for Modulators of Lamin A Splicing
Conditions: HeLa LMNA splicing GFP/RFP minigene ratio, 48 h
Procedure, shortened: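 S3 HeLa stable clones carrying a lamin A-EGFP splicing minigene plus DsRed2 were seeded at 600 cells/well in Opti-MEM with 2% FBS, pin-dosed and incubated 48 h at 37°C. Acumen cytometry (488 nm) gave the GFP/RFP total-intensity ratio.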

[1] = measured here: GFP splicing reporter channel
[2] = measured here: RFP viability control channel

## O=C(CSc1nc(C2CC2)nc2ccccc12)Nc1ccc2c(c1)OCCO2
[1]
  AC50: 22.4 µM [falling, single point]
[2]
  AC50: 35.5 µM [falling, single point]

## CCC(=O)NC(c1cccc([N+](=O)[O-])c1)c1c(OC(C)=O)ccc2ccccc12 (stereo unspecified)
[2]
  AC50: 14.1 µM [rising, single point]

## CN1C(=O)/C(=C\c2ccncc2)SC1=Nc1ccccc1
[1]
  AC50: 8.91 µM [rising, partial curve, poor fit]
[2]
  AC50: 8.91 µM [rising, partial curve]

## CCCCOC(=O)Nc1ccc(S(=O)(=O)Nc2ccc([N+](=O)[O-])cc2)cc1
[2]
  AC50: 35.5 µM [rising, single point]

## Cc1cc(C(=O)CN2C(=O)C(=O)N(Cc3ccccc3)C2=O)c(C)n1-c1ccc2c(c1)OCCO2
[1]
  AC50: 2 µM [rising, full curve, poor fit]
[2]
  AC50: 5.01 µM [rising, partial curve]

## Cc1cccc(N=C2NN=C(c3c[nH]c4ccccc34)CS2)c1
[1]
  AC50: 22.4 µM [falling, single point]
[2]
  AC50: 31.6 µM [falling, single point]

## COc1cc(C(=O)NNC(=O)c2ccc(NC(=O)C(C)(C)C)cc2)cc(OC)c1OC
[2]
  AC50: 2.82 µM [falling, full curve]

## O=C1CCc2cc(S(=O)(=O)N3CCN(Cc4ccc5c(c4)OCO5)CC3)ccc2N1
[1]
  AC50: 12.6 µM [rising, partial curve, poor fit]
[2]
  AC50: 12.6 µM [rising, partial curve]

## CC(=O)Nc1c(C)nn(-c2ccccc2)c1N1CCC(C(=O)Nc2ccc(C)cc2Cl)CC1
[1]
  AC50: 0.158 µM [rising, full curve, poor fit]
[2]
  AC50: 2.82 µM [rising, partial curve, poor fit]

## COc1cccc(/C=N/NC(=O)C(=O)N/N=C/c2cccc(OC)c2OC)c1OC
[1]
  AC50: 17.8 µM [falling, partial curve, poor fit]
[2]
  AC50: 1.26 µM [falling, full curve, poor fit]

## CCOC(=O)C1CCCN(C(=O)c2ccc(C)c(NC(=O)c3nsc4ccccc34)c2)C1 (stereo unspecified)
[1]
  AC50: 0.562 µM [rising, single point]

## C1CCC(C(CC2CCCCN2)C2CCCCC2)CC1 (stereo unspecified)
[1]
  AC50: 2.24 µM [falling, partial curve]
[2]
  AC50: 7.08 µM [falling, partial curve]

## O=C1/C(=C\c2ccccc2)CCc2c1[nH]c1ccccc21
[2]
  AC50: 6.31 µM [rising, full curve, poor fit]

## Nc1c(S(=O)(=O)c2ccccc2)c2nc3ccccc3nc2n1/N=C/c1cccc(O)c1
[1]
  AC50: 17.8 µM [rising, single point]
[2]
  AC50: 35.5 µM [rising, single point]

## CCOC(=O)CN(Cc1ccccc1)S(=O)(=O)c1ccc(NC(C)=O)cc1
[1]
  AC50: 35.5 µM [rising, single point]
[2]
  AC50: 35.5 µM [rising, single point]

## Cc1ccc(O)c(NC(=O)C2CC(c3c(F)cccc3Cl)=NO2)c1 (stereo unspecified)
[1]
  AC50: 14.1 µM [rising, partial curve]
[2]
  AC50: 35.5 µM [rising, single point]

## CCN1C(=O)/C(=C2/Sc3ccc(OC)cc3N2C)SC1=Nc1ccc(OC)cc1
[1]
  AC50: 0.398 µM [rising, full curve, poor fit]

## COC(=O)c1ccc(C(=O)OC)c(NC(=O)CSc2cccc[n+]2[O-])c1
[1]
  AC50: 6.31 µM [falling, full curve]
[2]
  AC50: 7.08 µM [falling, full curve]

## CCN(CC)c1ccc2cc(-c3nnc(-c4ccccc4)o3)c(=O)oc2c1
[2]
  AC50: 2.51 µM [falling, single point]

## Cn1nc(C(F)(F)F)c(C#N)c1N1CCN(c2ccccc2F)CC1
[1]
  AC50: 15.8 µM [rising, single point]
[2]
  AC50: 35.5 µM [rising, single point]

## CCOc1ccc(C(=O)c2nc3c(n2O)CCCC3)cc1
[1]
  AC50: 1 µM [rising, partial curve, poor fit]

## COc1ccc(CCNC(=O)C2CCN(Cc3nc(-c4cccc(Cl)c4)oc3C)CC2)cc1OC
[1]
  AC50: 15.8 µM [rising, partial curve]
[2]
  AC50: 25.1 µM [rising, single point]

## Oc1ccccc1CNCCCNCc1ccccc1O
[1]
  AC50: 25.1 µM [rising, single point]

## COc1ccc(C(=O)c2cc([N+](=O)[O-])ccc2N2CCCC2)cc1
[1]
  AC50: 15.8 µM [rising, single point]
[2]
  AC50: 14.1 µM [rising, partial curve]

## Cc1ccc(CNS(=O)(=O)c2ccc3c(c2)OCCO3)cc1
[2]
  AC50: 22.4 µM [rising, single point]

## COc1cc(C(c2c(C)[nH][nH]c2=O)c2c(C)[nH][nH]c2=O)ccc1OS(=O)(=O)c1ccccc1
[2]
  AC50: 6.31 µM [falling, single point]

## Cc1nc(NC(=O)c2ccc(Cl)cc2)sc1Cc1ccc2c(c1)OCO2
[1]
  AC50: 7.08 µM [rising, full curve, poor fit]
[2]
  AC50: 5.01 µM [rising, full curve]

## CC(/C=N/n1c(-c2ccc(C)cc2)n[nH]c1=S)=C\c1ccco1
[2]
  AC50: 22.4 µM [rising, partial curve]

## COc1cccc(CNCCc2c[nH]c3ccccc23)c1OCc1ccccc1F
[1]
  AC50: 3.16 µM [falling, single point]
[2]
  AC50: 5.62 µM [falling, single point]

## CC(NC(=S)Nc1ccc(OC(F)F)c(Cl)c1)C(C)(C)C (stereo unspecified)
[2]
  AC50: 35.5 µM [rising, partial curve]

## FC(F)(F)c1ccccc1-c1cncnc1NCCN1CCOCC1
[1]
  AC50: 11.2 µM [falling, partial curve]
[2]
  AC50: 11.2 µM [falling, partial curve]

## COc1cccc(S(=O)(=O)NCC(=O)Nc2ccc(C(C)(C)C)cc2)c1
[1]
  AC50: 35.5 µM [rising, single point]
[2]
  AC50: 35.5 µM [rising, single point]
